± gives the standard deviation of the averaged measurements. Some of the results follow. Single values are uncertain, as repeats are few or missing.
tested on: RAW 264.7 macrophages infected with S. aureus JE2-lux; assay: host macrophage viability (CellTiter-Fluor) relative to DMSO vehicle; higher = more viable host cells; conditions: 10 µM; treatment time 4 h; gentamicin 50 µg/ml

Row | Structure (SMILES) | host macrophage viability [%]
1 | COc1cccc(-n2c(=O)c3sc4ccccc4c3n(CC(=O)NC3CCCCC3)c2=O)c1 | 107
2 | O=C(COc1ncnc2ccccc12)Nc1cccc(C(=O)N2CCOCC2)c1 | 115
3 | COc1ccc(S(=O)(=O)NCC2COC3(CCCCC3)O2)cc1F (centres undefined) | 116
4 | COc1ccc(C(=O)Nc2cc3c4c(c2)CC(=O)N4CCC3)c(OC)c1 | 125
5 | COc1cccc(-n2c(N)cc(=O)nc2SCC(=O)N2CCN(c3ccccc3)CC2)c1 | 104
6 | O=C(O)CC1S/C(=N/c2ccccc2)N(c2ccccc2)C1=O (centres undefined) | 104
7 | COc1ccc(C2c3[nH]c4ccccc4c3CCN2C(=O)c2cccnc2)cc1 (centres undefined) | 118
8 | CCCC(=O)Nc1nc2c(s1)C(=O)CC(C)(C)C2 | 109
9 | O=C(CSCc1ccccc1)Nc1cc(Cl)ccc1Cl | 102
10 | CCc1nc(-c2csc(S(=O)(=O)Nc3ccc(Cl)cn3)c2)no1 | 87.2
11 | CCc1ccc(Nc2nc(C(=O)O)nc3ccccc23)cc1 | 104
12 | CCOc1ccccc1NC(=O)Cn1c(C)c(Cc2ccccc2)c(=O)n2nc(-c3ccccc3)nc12 | 138
13 | Cc1cc(C)nc(NC(=O)c2ccc3c(c2)nnn3Cc2ccccc2C)n1 | 115
14 | O=C(NCCCN1CCOCC1)c1cc2n(n1)CCCN(Cc1ccc(F)cc1)C2=O | 102
15 | COC(=O)c1ccc(CSc2nc(-c3ccc(F)cc3)nc3c2c(=O)n(C)c(=O)n3C)o1 | 111 ± 2.1
16 | Cc1cc2nc(C3CCCN3C(=O)c3snnc3C)[nH]c2cc1C (centres undefined) | 115
17 | CN1CCN(c2ncnc3scc(-c4ccc(Cl)cc4)c23)CC1 | 128
18 | COc1ccc(NC(=O)c2c(N)c(C(=O)c3ccc(OC)cc3)n3ccccc23)cc1 | 136
19 | CCC(NC(=O)Cn1c(-c2cccs2)cc2cccnc21)c1c(C)nn(CC)c1C (centres undefined) | 113
20 | COc1ccc(-c2cc(C(F)(F)F)n3nc(C(=O)N4CCN(c5ccccc5)CC4)nc3n2)cc1 | 143
21 | O=S(=O)(/N=C/c1c(O)ccc2ccccc12)c1cccs1 | 107
22 | c1ccc2c(c1)CCN(c1nc3cc4c(cc3s1)OCCO4)C2 | 106 ± 1.2
23 | COC(=O)Cc1c(-c2ccccc2)c2cc(Br)ccc2[nH]c1=O | 104
24 | Clc1ccc(-c2nnc(C(c3ccccc3)N3CCc4ccccc4C3)o2)cc1 (centres undefined) | 127
25 | Cn1c(=O)[nH]c(=O)c2c1nc(N1CCOCC1)n2CCCSc1nc2ccccc2o1 | 116
26 | COCCn1c(SCC(=O)Nc2ccc(C(=O)OC)cc2)nc2cccnc21 | 102

Row | Structure (SMILES) | host macrophage viability [%]
27 | CCS(=O)(=O)c1ccc(C(=O)Nc2nc3c(OC)ccc(C)c3s2)cc1 | 120
28 | COc1ccc(NC(=O)N(Cc2cc3cc(C)ccc3n3nnnc23)CC2CCCO2)cc1 (centres undefined) | 93.6
29 | CCSc1ccccc1C(=O)Nc1nc2c(s1)COc1ccccc1-2 | 132
30 | Cc1ccc(S(=O)(=O)Nc2ccccc2C(=O)Nc2cccc3c2C(=O)c2ccccc2C3=O)cc1 | 127
31 | CC(=O)Nc1ccc(NC(=O)CN2CCC3(CC2)NC(=O)N(C)C3=O)cc1 | 106
32 | COc1ccccc1N1CC(C)Cn2c1nc1c2c(=O)n(CC(N)=O)c(=O)n1C (centres undefined) | 109
33 | O=C(CNC(=O)c1ccccc1)N/N=C1\C(=O)Nc2ccc([N+](=O)[O-])cc21 | 135
34 | COc1cccc(C(=O)COC(=O)c2cc(O)nc3ccccc23)c1 | 127
35 | Cc1nc(N2CCN(c3ccccc3)CC2)[nH]c(=O)c1CCC(C)C | 123
36 | COC(=O)c1c(NC(=O)CCc2ccccc2)sc2c1CC(C)(C)NC2(C)C | 113
37 | Cc1sc2ncnc(NC3CCCCC3)c2c1S(=O)(=O)N1CCCCC1 | 117
38 | CCOc1cccc(-c2csc(NC(=O)c3cnc(SC)nc3)n2)c1 | 112
39 | COc1ccc(C2CC(c3cccs3)=NN2C(=O)COc2cccc3c2CCNC3=O)cc1 (centres undefined) | 117
40 | CC(NC(=O)CC1Nc2cccc3cccc(c23)NC1=O)c1ccccc1 (centres undefined) | 129
41 | COc1cccc(-c2noc(-c3cccn4c(=O)c5ccccc5nc34)n2)c1OC | 126
42 | c1cnc(N2CCN(c3nn4nnnc4c4ccccc34)CC2)nc1 | 108
43 | CCOC(=O)C(C)Sc1nc2c(c(=O)[nH]c(=O)n2C)n1CCc1ccccc1 (centres undefined) | 125
44 | COc1ccc(C2CC(c3cccc(NS(C)(=O)=O)c3)=NN2C(=O)c2ccco2)cc1 (centres undefined) | 110
45 | CCOC(=O)c1c(C)oc2c1C1=NC(C)(C)CN1C=N2 | 124
46 | O=C(CSc1nnc2c(n1)-c1cccc3cccc-2c13)NNC(=O)c1ccc(Cl)cc1 | 103
47 | CN(C)c1cccc(C(=O)Nc2nnc(-c3ccccc3)[nH]2)c1 | 103
48 | CCCc1cc(=O)[nH]c2nnc(SCc3ccc(C(=O)OC)o3)n12 | 101
49 | COC(=O)c1cc2c(cc1NC(=O)c1cc3cccc(OC)c3oc1=O)OCCO2 | 119
50 | Cn1/c(=N\C(=O)CCS(=O)(=O)c2ccc(F)cc2)sc2c(Cl)ccc(Cl)c21 | 129
51 | Cc1cc2cc3c(N)c(C(=O)N4CCc5ccccc54)sc3nc2cc1C | 101
52 | O=C(O)c1ccc(CNC2=NS(=O)(=O)c3ccccc32)cc1 | 120

Row | Structure (SMILES) | host macrophage viability [%]
53 | Cc1ccc2cccc(S(=O)(=O)Nc3ccc(C(=O)O)cc3)c2n1 | 130
54 | CN(Cc1ccccc1)C(=O)Cn1cccc1-c1nc(-c2ccc(Cl)cc2)cs1 | 107
55 | Cc1cc2nnc(SCC(=O)NCc3ccco3)n2c2ccccc12 | 105 ± 2.8
56 | COc1ccc(OC)c(-n2c(=S)[nH]c3cc(C(=O)NCc4ccco4)ccc3c2=O)c1 | 115
57 | CC(=O)Nc1ccc2nc(NC(=O)c3cc(Cl)sc3Cl)sc2c1 | 116 ± 8.6
58 | Cn1c(=O)c2sccc2n2c(CCCC(=O)NCCc3c[nH]c4ccccc34)nnc12 | 119
59 | NC(=O)c1sc(=S)n(-c2ccccc2)c1N | 102 ± 3.7
60 | COc1ccc(NC(=O)CSc2nnc(-c3cccnc3)o2)c(OC)c1 | 124
61 | Cn1c2ccc(Br)cc2c2nnc(SCc3nc4ccccc4[nH]3)nc21 | 123
62 | CCOC(=O)CSc1nc2c([nH]1)c(=O)n(C)c(=O)n2C | 107
63 | Cc1nc2cc(NC(=O)Nc3ccc(Cl)cc3)ccc2n1-c1ccccc1 | 105
64 | COc1cccc(Nc2nc(NC3CCN(Cc4ccccc4)CC3)nc3c2cnn3C)c1 | 93.3
65 | Nc1c(C(=O)NCc2ccco2)nnn1Cc1cccc(Cl)c1 | 100
66 | COc1ccc(C(=O)CSc2nc(=O)[nH]c3c2CCCC3)cc1 | 119
67 | CCSc1nnc(NC(=O)CCn2c(=O)oc3ccccc32)s1 | 119 ± 13
68 | COc1ccc(-n2nc3c(c2NC(=O)C2(c4ccc(Cl)cc4)CCCC2)CS(=O)C3)cc1 (centres undefined) | 116
69 | Cc1ccccc1OCCCC(=O)Nc1sc2c(c1C#N)CCC(C)C2 (centres undefined) | 127
70 | COc1ccc(NC(=O)Cn2cnc3c(cnn3-c3ccc(F)cc3)c2=O)cc1OC | 109 ± 10
71 | Cc1ccc2c(c1)C(=O)OC(C(=O)Nc1cc(C)on1)C2 (centres undefined) | 113
72 | COc1ccc(C(NC(=O)c2cnc(C(C)(C)C)nc2)c2ccncc2)cc1 (centres undefined) | 105
73 | CC1CCc2c(sc3ncn(C4CCN(C(=O)c5ccco5)CC4)c(=O)c23)C1 (centres undefined) | 127
74 | CCC(=O)NCCSc1ncc(-c2ccccc2)[nH]1 | 118
75 | CCN1C(=O)c2cccc3c(NC(=O)Nc4ccc(Cl)cc4)ccc1c23 | 141
76 | COc1cc(/C=N/NC(=O)CCc2c(C)n[nH]c2C)ccc1O | 114
77 | c1c2c(cc3sc(N4CCOCC4)nc13)OCCO2 | 111 ± 5.7
78 | COc1cccc(Oc2coc3cc(OCC(N)=O)ccc3c2=O)c1 | 134

Row | Structure (SMILES) | host macrophage viability [%]
79 | Cc1cc2ccccc2c(=O)n1CC(=O)NCC1COc2ccccc2O1 (centres undefined) | 118
80 | O=C(NNc1nc2c(F)cccc2s1)c1nc2ccccc2s1 | 98.4 ± 9.2
81 | Cc1cc(NC(=O)c2cc(=O)c3ccccc3o2)no1 | 106.7 ± 0.99
82 | Cc1ccnc(NC(=O)C2CCN(S(=O)(=O)c3c(C)nn(CC(=O)N4CCCC4)c3C)CC2)c1 | 130
83 | CCn1nc(C)c2[nH]c(=S)n(Cc3ccccc3Cl)c(=O)c21 | 139
84 | CCn1c(SCC(=O)c2ccc(C)cc2)nc2cccnc21 | 109
85 | COc1ccc2oc(=O)c(C(=O)Nc3cccc(-c4cn5cccc(C)c5n4)c3)cc2c1 | 116
86 | CNc1ncccc1CN1CCc2cc(OC)c(OC)cc2C1c1ccccc1 (centres undefined) | 110
87 | Cn1c(=O)[nH]c(=O)c2[nH]c(CN3CCN(c4ccc(F)cc4)CC3)nc21 | 119
88 | CC(=O)N1CCCc2ccc(NC(=O)C(=O)NCCc3ccc(S(N)(=O)=O)cc3)cc21 | 103
89 | CCOc1ccc2nc(-n3nc(C)c4c3NC(=O)CC4c3cc(Br)ccc3OC)sc2c1 (centres undefined) | 133
90 | COc1ccc(CN(Cc2cc3cc(C)ccc3[nH]c2=O)C(=O)N2CCCC2)cc1 | 111
91 | Cc1ccc2c(c1)n(Cc1ccc(Cl)cc1)c(=O)c1nc(C(=O)NCCN3CCCC3)nn12 | 112
92 | Cn1c(SCC(=O)Nc2ccc3c(c2)OCO3)nc2c(-c3ccccc3)csc2c1=O | 115
93 | O=C(Nc1sc2c(c1C(=O)NC1CCS(=O)(=O)C1)CCCC2)c1ccccc1Cl (centres undefined) | 119
94 | CN(C)S(=O)(=O)N1CCC(n2nc(C3CC3)ccc2=O)CC1 | 93.3
95 | Cc1cc2ccccc2n2c(=O)n(CC(C)NC(=O)CC(C)n3cncn3)nc12 (centres undefined) | 115
96 | CC(=O)Nc1cccc(NC(=O)CSc2nc(=O)n(Cc3ccco3)c3c2CCC3)c1 | 126
97 | Cc1ccc(/C=C(\C#N)C(=O)Nc2ccccc2O)o1 | 81 ± 9
98 | CC(=O)c1cccc(NC(=O)CSc2ccc(-c3ccccn3)nn2)c1 | 117
99 | CN(C(=O)c1ccc(Cn2cccn2)o1)c1nc2c(s1)CCc1c-2cnn1C | 95.1
100 | Cc1cc(C)c2c(O)nc(SCC(=O)c3ccc(F)c(C)c3)nc2n1 | 121
101 | CC(=O)Nc1cc2c(cc1NC(=O)c1ncoc1-c1cccc(F)c1)OCCO2 | 115
102 | CCn1c(SCC(=O)NNC(=O)c2ccc(C)cc2)nc2c1c(=O)n(C)c(=O)n2C | 115
103 | Cc1cccc2cc(C#N)c(SCC(=O)Nc3ccccc3-c3ccccc3)nc12 | 108
104 | COC(=O)c1ccc2nc(NC(=O)/C=C/c3cccs3)sc2c1 | 131

Reference: the supplement of paper PMC12578635
